Results taken from the supplement of paper PMC6078165.

Tested on: Hs578T
Assay: relative JC-1 red fluorescence (viability) vs pre-drug, coculture with fibroblast (fraction); higher = more viable cancer cells
Conditions: 0.1 µM
Experimental: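 JC-1 labelled TNBC cells cocultured 1:1 (1,500 cells each) with CellTrace Violet stained primary or stromal fibroblasts in 384-well plates in FluoroBrite medium, treated with one of 42 anticancer drugs at 0.1, 1, 10 or 100 uM. JC-1 red fluorescence (mitochondrial integrity in cancer cells only) was read by plate reader every 8 h for 72 h. Values are normalised to each well's pre-drug value. The stock of one drug was tenfold lower, so its dose labels may be too high.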

O=C1c2c(O)ccc(O)c2C(=O)c2c(NCCNCCO)ccc(NCCNCCO)c21 [Mitoxantrone]
Conditions | relative JC-1 red fluorescence
8 h | 0.867 ± 0.015
16 h | 0.7704 ± 0.0035
24 h | 0.706 ± 0.019
32 h | 0.68 ± 0.03
40 h | 0.629 ± 0.037
48 h | 0.595 ± 0.036
56 h | 0.584 ± 0.032

relative JC-1 red fluorescence
Conditions | 8 h | 16 h | 24 h | 32 h | 40 h | 48 h | 56 h
coculture fibroblast: C12385 | 0.76926 ± 0.00013 | 0.693 ± 0.022 | 0.6666 ± 0.0048 | 0.59 ± 0.026 | 0.548 ± 0.036 | 0.524 ± 0.042 | 0.507 ± 0.044
coculture fibroblast: H6013 | 0.8424 ± 0.0026 | 0.774 ± 0.012 | 0.717 ± 0.023 | 0.69 ± 0.034 | 0.666 ± 0.038 | 0.652 ± 0.052 | 0.629 ± 0.066
coculture fibroblast: H6019 | 0.722 ± 0.026 | 0.625 ± 0.026 | 0.599 ± 0.045 | 0.528 ± 0.046 | 0.498 ± 0.055 | 0.481 ± 0.055 | 0.462 ± 0.06
coculture fibroblast: H6076 | 0.835 ± 0.019 | 0.772 ± 0.047 | 0.759 ± 0.023 | 0.772 ± 0.013 | 0.758 ± 0.02 | 0.774 ± 0.011 | 0.7705 ± 0.0052
coculture fibroblast: H6231 | 0.825 ± 0.036 | 0.755 ± 0.043 | 0.688 ± 0.03 | 0.681 ± 0.037 | 0.626 ± 0.025 | 0.613 ± 0.023 | 0.577 ± 0.018
coculture fibroblast: HADF | 0.83 ± 0.0098 | 0.759 ± 0.014 | 0.6897 ± 0.006 | 0.629 ± 0.011 | 0.5909 ± 0.002 | 0.553 ± 0.0082 | 0.527 ± 0.014
coculture fibroblast: HCFa | 0.8058 ± 0.0031 | 0.717 ± 0.018 | 0.657 ± 0.033 | 0.614 ± 0.04 | 0.562 ± 0.044 | 0.544 ± 0.04 | 0.507 ± 0.04
coculture fibroblast: HCPF | 0.883 ± 0.016 | 0.7844 ± 0.0059 | 0.7115 ± 0.0026 | 0.685 ± 0.012 | 0.639 ± 0.0094 | 0.616 ± 0.012 | 0.594 ± 0.017
coculture fibroblast: HHSteC | 0.847 ± 0.021 | 0.792 ± 0.013 | 0.7265 ± 0.002 | 0.6894 ± 0.003 | 0.6443 ± 0.0042 | 0.61669 ± 0.00038 | 0.598 ± 0.015
coculture fibroblast: HMF | 0.845 ± 0.031 | 0.763 ± 0.033 | 0.724 ± 0.049 | 0.715 ± 0.06 | 0.673 ± 0.074 | 0.667 ± 0.077 | 0.642 ± 0.072
coculture fibroblast: HPFa | 0.87 ± 0.022 | 0.829 ± 0.024 | 0.752 ± 0.031 | 0.703 ± 0.046 | 0.674 ± 0.042 | 0.649 ± 0.043 | 0.614 ± 0.045
coculture fibroblast: HUF | 0.81 ± 0.024 | 0.739 ± 0.033 | 0.711 ± 0.021 | 0.615 ± 0.015 | 0.563 ± 0.018 | 0.541 ± 0.017 | –
coculture fibroblast: Hs27A | 0.8288 ± 0.0068 | 0.793 ± 0.007 | 0.778 ± 0.0089 | 0.758 ± 0.017 | 0.729 ± 0.01 | 0.7135 ± 0.00075 | –
coculture fibroblast: Hs343T | 0.834 ± 0.016 | 0.759 ± 0.013 | 0.693 ± 0.022 | 0.704 ± 0.017 | 0.6632 ± 0.0038 | 0.6537 ± 0.0052 | –
coculture fibroblast: WS1 | 0.77001 ± 0.00056 | 0.672 ± 0.014 | 0.64 ± 0.017 | 0.568 ± 0.0087 | 0.533 ± 0.0057 | 0.522 ± 0.017 | –

± gives the standard deviation of the averaged measurements. Values are relative to the signal before dosing, not to a vehicle control; the signal also falls without drug.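 Fibroblast labels name human fibroblasts: mostly primary ones from tissues such as uterus (C12385, HUF), lung (H6013), bone (Hs27A), adrenal (HADF) and skin (WS1), plus mammary HMF and breast cancer-associated Hs343T. The cancer cells are basal-like or mesenchymal-like triple-negative breast cancer lines. The paper calls a changed response a hit when it shifts by more than 3x the replicate standard deviation. The tissue of the other fibroblasts is not given here.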
